Assay results from patent US7947727B2, “Compounds” (GlaxoGroupLimited, priority 2006, dated 2011).
Some entries share one result that the patent states for a list of compounds.

Target: T1, glucocorticoid receptor (Homo sapiens, UniProt P04150)
T1 construct: a partially purified full length glucocorticoid receptor
T1 sequence (P04150 1-777): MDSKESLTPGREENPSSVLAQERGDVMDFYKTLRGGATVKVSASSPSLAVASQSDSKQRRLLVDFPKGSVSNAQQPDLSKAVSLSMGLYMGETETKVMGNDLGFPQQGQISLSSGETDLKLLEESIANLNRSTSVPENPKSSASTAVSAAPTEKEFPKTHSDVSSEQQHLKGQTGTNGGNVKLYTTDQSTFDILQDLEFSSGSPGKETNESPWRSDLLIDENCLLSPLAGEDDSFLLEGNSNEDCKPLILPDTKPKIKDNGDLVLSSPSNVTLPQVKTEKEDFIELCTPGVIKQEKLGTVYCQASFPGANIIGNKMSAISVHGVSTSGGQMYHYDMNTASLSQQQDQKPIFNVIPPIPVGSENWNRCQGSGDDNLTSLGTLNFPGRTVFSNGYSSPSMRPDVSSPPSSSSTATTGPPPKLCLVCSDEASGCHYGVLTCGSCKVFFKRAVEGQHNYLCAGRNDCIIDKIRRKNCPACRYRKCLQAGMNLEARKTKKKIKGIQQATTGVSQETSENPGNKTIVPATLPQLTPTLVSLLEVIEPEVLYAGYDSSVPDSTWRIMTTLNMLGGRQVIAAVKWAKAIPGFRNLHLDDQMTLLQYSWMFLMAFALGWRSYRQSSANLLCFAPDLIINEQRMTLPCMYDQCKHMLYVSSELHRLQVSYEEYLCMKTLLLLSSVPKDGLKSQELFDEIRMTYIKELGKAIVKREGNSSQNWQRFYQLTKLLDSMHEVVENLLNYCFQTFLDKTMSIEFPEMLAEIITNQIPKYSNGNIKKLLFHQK
Experiment: Glucocorticoid Receptor Binding Assay (fluorescence polarisation competition)
Conditions: competition with Alexa 555 fluorescently-labelled dexamethasone derivative; partially purified full length glucocorticoid receptor; 2 hours room temperature

CCN(CC(O)(CNc1cccc2c1cnn2-c1ccccc1)C(F)(F)F)C(=O)c1ccccc1 (stereo not drawn) [Example 1, N-Ethyl-N-(3,3,3-trifluoro-2-hydroxy-2-{[(1-phenyl-1H-indazol-4-yl)amino]methyl}propyl)benzamide]
glucocorticoid binding pIC50: ≥ 7

CCN(CC(O)(CNc1cccc2c1cnn2-c1ccccc1)C(F)(F)F)C(=O)c1ccsc1 (stereo not drawn) [Example 31, N-Ethyl-N-(3,3,3-trifluoro-2-hydroxy-2-{[1(1-phenyl-1H-indazol-4-yl)amino]methyl}propyl)-3-thiophenecarboxamide]
glucocorticoid binding pIC50: ≥ 7

CCCN(CC(O)(CNc1cc(C)cc2c1cnn2-c1ccc(F)cc1)C(F)(F)F)C(=O)c1ccsc1 (stereo not drawn) [Example 27, N-Propyl-N-[3,3,3-trifluoro-2-({[1-(4-fluorophenyl)-6-methyl-1H-indazol-4-yl]amino}methyl)-2-hydroxypropyl]-3-thiophenecarboxamide]
glucocorticoid binding pIC50: ≥ 7

CCN(CC(O)(CNc1cccc2c1cnn2-c1ccc(F)cc1)C(F)(F)F)C(=O)c1ccsc1 (stereo not drawn) [Example 39, N-Ethyl-N-[3,3,3-trifluoro-2-({[1-(4-fluorophenyl)-1H-indazol-4-yl]amino}methyl)-2-hydroxypropyl]-3-thiophenecarboxamide]
glucocorticoid binding pIC50: ≥ 7

CCN(CC(O)(CNc1cc(C)cc2c1cnn2-c1ccc(F)cc1)C(F)(F)F)C(=O)c1c(F)cccc1Cl (stereo not drawn) [Example 55, 2-Chloro-N-ethyl-6-fluoro-N-[3,3,3-trifluoro-2-({[1-(4-fluorophenyl)-6-methyl-1H-indazol-4-yl]amino}methyl)-2-hydroxypropyl]benzamide]
glucocorticoid binding pIC50: ≥ 7

CCCN(CC(O)(CNc1cc(C)cc2c1cnn2-c1ccccc1)C(F)(F)F)C(=O)c1ccccc1 (stereo not drawn) [Example 45, N-Propyl-N-(3,3,3-trifluoro-2-hydroxy-2-{[(6-methyl-1-phenyl-1H-indazol-4-yl)amino]methyl}propyl)benzamide]
glucocorticoid binding pIC50: ≥ 7

CCN(CC(O)(CNc1cc(C)cc2c1cnn2-c1ccccc1)C(F)(F)F)C(=O)c1ccccc1C (stereo not drawn) [Example 11, N-Ethyl-2-methyl-N-(3,3,3-trifluoro-2-hydroxy-2-{[(6-methyl-1-phenyl-1H-indazol-4-yl)amino]methyl}propyl)benzamide]
glucocorticoid binding pIC50: ≥ 7

CCCN(CC(O)(CNc1cccc2c1cnn2-c1ccc(F)cc1)C(F)(F)F)C(=O)c1ccccc1Cl (stereo not drawn) [Example 41, 2-Chloro-N-propyl-N-[3,3,3-trifluoro-2-({[1-(4-fluorophenyl)-1H-indazol-4-yl]amino}methyl)-2-hydroxypropyl]benzamide]
glucocorticoid binding pIC50: ≥ 7

CCCN(CC(O)(CNc1cccc2c1cnn2-c1ccccc1)C(F)(F)F)C(=O)c1cccs1 (stereo not drawn) [Example 36, N-Propyl-N-(3,3,3-trifluoro-2-hydroxy-2-{[(1-phenyl-1H-indazol-4-yl)amino]methyl}propyl)-2-thiophenecarboxamide]
glucocorticoid binding pIC50: ≥ 7

CCN(CC(O)(CNc1cccc2c1cnn2-c1ccc(F)cc1)C(F)(F)F)C(=O)c1c(F)cccc1C(F)(F)F (stereo not drawn) [Example 58, N-Ethyl-2-fluoro-N-[3,3,3-trifluoro-2-({[1-(4-fluorophenyl)-1H-indazol-4-yl]amino}methyl)-2-hydroxypropyl]-6-(trifluoromethyl)benzamide]
glucocorticoid binding pIC50: ≥ 7

CCN(CC(O)(CNc1cccc2c1cnn2-c1ccc(F)cc1)C(F)(F)F)C(=O)c1ccccc1C (stereo not drawn) [Example 6, N-Ethyl-2-methyl-N-[3,3,3-trifluoro-2-({[1-(4-fluorophenyl)-1H-indazol-4-yl]amino}methyl)-2-hydroxypropyl]benzamide]
glucocorticoid binding pIC50: ≥ 7

CCCN(CC(O)(CNc1cccc2c1cnn2-c1ccccc1)C(F)(F)F)C(=O)c1ccccc1F (stereo not drawn) [Example 34, 2-Fluoro-N-propyl-N-(3,3,3-trifluoro-2-hydroxy-2-{[(1-phenyl-1H-indazol-4-yl)amino]methyl}propyl)benzamide]
glucocorticoid binding pIC50: ≥ 7

CCCN(CC(O)(CNc1cc(C)cc2c1cnn2-c1ccccc1)C(F)(F)F)C(=O)c1ccccc1C (stereo not drawn) [Example 14, 2-Methyl-N-propyl-N-(3,3,3-trifluoro-2-hydroxy-2-{[(6-methyl-1-phenyl-1H-indazol-4-yl)amino]methyl}propyl)benzamide]
glucocorticoid binding pIC50: ≥ 7

CCN(CC(O)(CNc1cc(C)cc2c1cnn2-c1ccc(F)cc1)C(F)(F)F)C(=O)c1c(C)cccc1C (stereo not drawn) [Example 49, N-Ethyl-2,6-dimethyl-N-[3,3,3-trifluoro-2-({[1-(4-fluorophenyl)-6-methyl-1H-indazol-4-yl]amino}methyl)-2-hydroxypropyl]benzamide]
glucocorticoid binding pIC50: ≥ 7

CCN(CC(O)(CNc1cc(C)cc2c1cnn2-c1ccc(F)cc1)C(F)(F)F)C(=O)c1ccccc1F (stereo not drawn) [Example 18, N-Ethyl-2-fluoro-N-[3,3,3-trifluoro-2-({[1-(4-fluorophenyl)-6-methyl-1H-indazol-4-yl]amino}methyl)-2-hydroxypropyl]benzamide]
glucocorticoid binding pIC50: ≥ 7

CCN(CC(O)(CNc1cc(C)cc2c1cnn2-c1ccccc1)C(F)(F)F)C(=O)c1ccccc1 (stereo not drawn) [Example 28, N-Ethyl-N-(3,3,3-trifluoro-2-hydroxy-2-{[(6-methyl-1-phenyl-1H-indazol-4-yl)amino]methyl}propyl)benzamide]
glucocorticoid binding pIC50: ≥ 7

CCCN(CC(O)(CNc1cccc2c1cnn2-c1ccccc1)C(F)(F)F)C(=O)c1ccccc1Cl (stereo not drawn) [Example 35, 2-Chloro-N-propyl-N-(3,3,3-trifluoro-2-hydroxy-2-{[(1-phenyl-1H-indazol-4-yl)amino]methyl}propyl)benzamide]
glucocorticoid binding pIC50: ≥ 7

CCN(CC(O)(CNc1cc(C)cc2c1cnn2-c1ccccc1)C(F)(F)F)C(=O)c1ccsc1 (stereo not drawn) [Example 13, N-Ethyl-N-(3,3,3-trifluoro-2-hydroxy-2-{[(6-methyl-1-phenyl-1H-indazol-4-yl)amino]methyl}propyl)-3-thiophenecarboxamide]
glucocorticoid binding pIC50: ≥ 7

CCCN(CC(O)(CNc1cc(C)cc2c1cnn2-c1ccccc1)C(F)(F)F)C(=O)c1ccsc1 (stereo not drawn) [Example 47, N-Propyl-N-(3,3,3-trifluoro-2-hydroxy-2-{[(6-methyl-1-phenyl-1H-indazol-4-yl)amino]methyl}propyl)-3-thiophenecarboxamide]
glucocorticoid binding pIC50: ≥ 7

CCCN(CC(O)(CNc1cccc2c1cnn2-c1ccc(F)cc1)C(F)(F)F)C(=O)c1cccs1 (stereo not drawn) [Example 42, N-Propyl-N-[3,3,3-trifluoro-2-({[1-(4-fluorophenyl)-1H-indazol-4-yl]amino}methyl)-2-hydroxypropyl]-2-thiophenecarboxamide]
glucocorticoid binding pIC50: ≥ 7

CCCN(CC(O)(CNc1cc(C)cc2c1cnn2-c1ccccc1)C(F)(F)F)C(=O)c1ccccc1F (stereo not drawn) [Example 15, 2-Fluoro-N-propyl-N-(3,3,3-trifluoro-2-hydroxy-2-{[(6-methyl-1-phenyl-1H-indazol-4-yl)amino]methyl}propyl)benzamide]
glucocorticoid binding pIC50: ≥ 7

CCCN(CC(O)(CNc1cc(C)cc2c1cnn2-c1ccc(F)cc1)C(F)(F)F)C(=O)c1ccccc1Cl (stereo not drawn) [Example 25, 2-Chloro-N-propyl-N-[3,3,3-trifluoro-2-({[1-(4-fluorophenyl)-6-methyl-1H-indazol-4-yl]amino}methyl)-2-hydroxypropyl]benzamide]
glucocorticoid binding pIC50: ≥ 7

CCCN(CC(O)(CNc1cc(C)cc2c1cnn2-c1ccccc1)C(F)(F)F)C(=O)c1cccs1 (stereo not drawn) [Example 46, N-Propyl-N-(3,3,3-trifluoro-2-hydroxy-2-{[(6-methyl-1-phenyl-1H-indazol-4-yl)amino]methyl}propyl)-2-thiophenecarboxamide]
glucocorticoid binding pIC50: ≥ 7

CCN(CC(O)(CNc1cccc2c1cnn2-c1ccc(F)cc1)C(F)(F)F)C(=O)c1c(F)cccc1F (stereo not drawn) [Example 50, N-Ethyl-2,6-difluoro-N-[3,3,3-trifluoro-2-({[1-(4-fluorophenyl)-1H-indazol-4-yl]amino}methyl)-2-hydroxypropyl]benzamide]
glucocorticoid binding pIC50: ≥ 7

CCCN(CC(O)(CNc1cccc2c1cnn2-c1ccccc1)C(F)(F)F)C(=O)c1ccsc1 (stereo not drawn) [Example 37, N-Propyl-N-(3,3,3-trifluoro-2-hydroxy-2-{[(1-phenyl-1H-indazol-4-yl)amino]methyl}propyl)-3-thiophenecarboxamide]
glucocorticoid binding pIC50: ≥ 7

CCN(CC(O)(CNc1cccc2c1cnn2-c1ccc(F)cc1)C(F)(F)F)C(=O)c1cccs1 (stereo not drawn) [Example 38, N-Ethyl-N-[3,3,3-trifluoro-2-({[1-(4-fluorophenyl)-1H-indazol-4-yl]amino}methyl)-2-hydroxypropyl]-2-thiophenecarboxamide]
glucocorticoid binding pIC50: ≥ 7

CCN(CC(O)(CNc1cc(C)cc2c1cnn2-c1ccccc1)C(F)(F)F)C(=O)c1cccs1 (stereo not drawn) [Example 44, N-Ethyl-N-(3,3,3-trifluoro-2-hydroxy-2-{[(6-methyl-1-phenyl-1H-indazol-4-yl)amino]methyl}propyl)-2-thiophenecarboxamide]
glucocorticoid binding pIC50: ≥ 7
